PubChem BioAssay AID1224827 – NIAID – 2016

Test: 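Identify regulators of the macrophage TNF-alpha response to bacterial LPS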 (follow-up of hits)
System: RAW264.7 G9 mouse macrophage reporter clone
Knock-down reagent: single siRNA against mouse genes, 100 nM siRNA
Time to read-out: siRNA for 2 days, then LPS about 16 h
Conditions: bacterial lipopolysaccharide (LPS), 10 ng/ml, cells fixed after overnight (about 16 h) stimulation
Detection: 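Imaged nuclear TNF reporter intensity, background removed, scaled per plate and to non-targeting control wells, as z-scores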
Reading the numbers: TNF reporter z-score, mean and TNF reporter z-score: higher = stronger Tnf promoter reporter signal; gene median z, three same-vendor siRNAs: higher = stronger Tnf reporter signal for the gene
Hit rule: 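Active siRNA: replicate-mean z-score of 2 or more, or -2 or less; no calls for control wells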
In all, the deposit lists about 3,800 reagents; shown is a random part of them. Of all reagents, about 2,200 (57%) got an active call. 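Active means a strong reporter change in either direction; calls are per siRNA, not per gene; qiagen siRNAs gave weaker effects.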 The numbers tell different reagents against one gene apart.

| TNF reporter z-score, mean | gene median z, three same-vendor siRNAs | TNF reporter z-score, repeat 1 | TNF reporter z-score, repeat 2 | Outcome | Gene | reagent |
| --- | --- | --- | --- | --- | --- | --- |
| -0.772 | -4.02 | -1.8 | 0.257 | inactive | Chchd1 (coiled-coil-helix-coiled-coil-helix domain containing 1) | 1 |
| -4.03 | -4.02 | -3.62 | -4.44 | active | Chchd1 (coiled-coil-helix-coiled-coil-helix domain containing 1) | 2 |
| -4.81 | -4.02 | -4.42 | -5.2 | active | Chchd1 (coiled-coil-helix-coiled-coil-helix domain containing 1) | 3 |
| 4.38 | 1.09 | 7.51 | 1.25 | active | Chchd1 (coiled-coil-helix-coiled-coil-helix domain containing 1) | 4 |
| 0.998 | 1.09 | 1.54 | 0.455 | inactive | Chchd1 (coiled-coil-helix-coiled-coil-helix domain containing 1) | 5 |
| -0.87 | 1.09 | 0.929 | -2.67 | inactive | Chchd1 (coiled-coil-helix-coiled-coil-helix domain containing 1) | 6 |
| 1.72 | 0.734 | 0.339 | 3.1 | inactive | Prkd2 (protein kinase D2) | 1 |
| 1.46 | 0.734 | 1.8 | 1.13 | inactive | Prkd2 (protein kinase D2) | 2 |
| -4.99 | 0.734 | -5.07 | -4.91 | active | Prkd2 (protein kinase D2) | 3 |
| 0.318 | -2.65 | 1.45 | -0.809 | inactive | Prkd2 (protein kinase D2) | 4 |
| -2.65 | -2.65 | -2.95 | -2.36 | active | Prkd2 (protein kinase D2) | 5 |
| -4.06 | -2.65 | -4.42 | -3.7 | active | Prkd2 (protein kinase D2) | 6 |
| -2.11 | -2.43 | -1.95 | -2.27 | active | Thrap3 (thyroid hormone receptor associated protein 3) | 1 |
| -2.96 | -2.43 | -3.66 | -2.25 | active | Thrap3 (thyroid hormone receptor associated protein 3) | 2 |
| -3.37 | -2.43 | -2.6 | -4.13 | active | Thrap3 (thyroid hormone receptor associated protein 3) | 3 |
| 3.51 | 1.18 | 6.08 | 0.94 | active | Thrap3 (thyroid hormone receptor associated protein 3) | 4 |
| 2.3 | 1.18 | 3.18 | 1.42 | active | Thrap3 (thyroid hormone receptor associated protein 3) | 5 |
| -1.42 | 1.18 | -0.941 | -1.89 | inactive | Thrap3 (thyroid hormone receptor associated protein 3) | 6 |
| 2.72 | -2.09 | 2.4 | 3.05 | active | Elf3 (E74-like factor 3) | 1 |
| -2.93 | -2.09 | -2.08 | -3.77 | active | Elf3 (E74-like factor 3) | 2 |
| -2.68 | -2.09 | -3.25 | -2.1 | active | Elf3 (E74-like factor 3) | 3 |
| 1.08 | -0.711 | 2.76 | -0.59 | inactive | Elf3 (E74-like factor 3) | 4 |
| -2.06 | -0.711 | -3.28 | -0.831 | active | Elf3 (E74-like factor 3) | 5 |
| -1.47 | -0.711 | -0.102 | -2.84 | inactive | Elf3 (E74-like factor 3) | 6 |
| -1.04 | -4.17 | -1.36 | -0.711 | inactive | Krt8 (keratin 8) | 1 |
| -4.55 | -4.17 | -3.97 | -5.13 | active | Krt8 (keratin 8) | 2 |
| -5.71 | -4.17 | -4.36 | -7.07 | active | Krt8 (keratin 8) | 3 |
| 4.17 | 1.55 | 7.61 | 0.732 | active | Krt8 (keratin 8) | 4 |
| 2.91 | 1.55 | 5.08 | 0.738 | active | Krt8 (keratin 8) | 5 |
| 1.46 | 1.55 | 2.36 | 0.552 | inactive | Krt8 (keratin 8) | 6 |

8 entries already listed, ordered by “TNF reporter z-score, mean”, descending:
| TNF reporter z-score, mean | gene median z, three same-vendor siRNAs | TNF reporter z-score, repeat 1 | TNF reporter z-score, repeat 2 | Outcome | Gene | reagent |
| --- | --- | --- | --- | --- | --- | --- |
| 3.51 | 1.18 | 6.08 | 0.94 | active | Thrap3 (thyroid hormone receptor associated protein 3) | 4 |
| 2.3 | 1.18 | 3.18 | 1.42 | active | Thrap3 (thyroid hormone receptor associated protein 3) | 5 |
| -1.42 | 1.18 | -0.941 | -1.89 | inactive | Thrap3 (thyroid hormone receptor associated protein 3) | 6 |
| -2.11 | -2.43 | -1.95 | -2.27 | active | Thrap3 (thyroid hormone receptor associated protein 3) | 1 |
| -2.65 | -2.65 | -2.95 | -2.36 | active | Prkd2 (protein kinase D2) | 5 |
| -2.96 | -2.43 | -3.66 | -2.25 | active | Thrap3 (thyroid hormone receptor associated protein 3) | 2 |
| -3.37 | -2.43 | -2.6 | -4.13 | active | Thrap3 (thyroid hormone receptor associated protein 3) | 3 |
| -4.06 | -2.65 | -4.42 | -3.7 | active | Prkd2 (protein kinase D2) | 6 |

Next results follow.
| TNF reporter z-score, mean | gene median z, three same-vendor siRNAs | TNF reporter z-score, repeat 1 | TNF reporter z-score, repeat 2 | Outcome | Gene | reagent |
| --- | --- | --- | --- | --- | --- | --- |
| 1.88 | 1.09 | 2.11 | 1.66 | inactive | Shc2 | 1 |
| 2.08 | 1.09 | 3.65 | 0.511 | active | Shc2 | 2 |
| -1 | 1.09 | -1.52 | -0.485 | inactive | Shc2 | 3 |
| -1.49 | -3.16 | -1.82 | -1.16 | inactive | Rarres2 (retinoic acid receptor responder (tazarotene induced) 2) | 1 |
| -3.16 | -3.16 | -3.59 | -2.72 | active | Rarres2 (retinoic acid receptor responder (tazarotene induced) 2) | 2 |
| -5.57 | -3.16 | -4.95 | -6.18 | active | Rarres2 (retinoic acid receptor responder (tazarotene induced) 2) | 3 |
| 1.71 | -1.06 | 3.04 | 0.372 | inactive | Rarres2 (retinoic acid receptor responder (tazarotene induced) 2) | 4 |
| -1.65 | -1.06 | -1.77 | -1.54 | inactive | Rarres2 (retinoic acid receptor responder (tazarotene induced) 2) | 5 |
| -1.54 | -1.06 | -0.576 | -2.51 | inactive | Rarres2 (retinoic acid receptor responder (tazarotene induced) 2) | 6 |
| 6.09 | -1.47 | 4.02 | 8.17 | active | Eif4ebp1 | 1 |
| -1.47 | -1.47 | -1.97 | -0.974 | inactive | Eif4ebp1 | 2 |
| -3.6 | -1.47 | -3.67 | -3.54 | active | Eif4ebp1 | 3 |
| 0.41 | -1.5 | 1.05 | -0.231 | inactive | Eif4ebp1 | 4 |
| -1.5 | -1.5 | -1.45 | -1.55 | inactive | Eif4ebp1 | 5 |
| -3.39 | -1.5 | -3.54 | -3.25 | active | Eif4ebp1 | 6 |
| -2.19 | -2.68 | -1.62 | -2.77 | active | Hs3st1 (heparan sulfate (glucosamine) 3-O-sulfotransferase 1) | 1 |
| -2.29 | -2.68 | -1.98 | -2.6 | active | Hs3st1 (heparan sulfate (glucosamine) 3-O-sulfotransferase 1) | 2 |
| -3.37 | -2.68 | -3.77 | -2.97 | active | Hs3st1 (heparan sulfate (glucosamine) 3-O-sulfotransferase 1) | 3 |
| 2.19 | 0.204 | 3.76 | 0.632 | active | Hs3st1 (heparan sulfate (glucosamine) 3-O-sulfotransferase 1) | 4 |
| 1.75 | 0.204 | 3.73 | -0.224 | inactive | Hs3st1 (heparan sulfate (glucosamine) 3-O-sulfotransferase 1) | 5 |
| -2.4 | 0.204 | -3.12 | -1.69 | active | Hs3st1 (heparan sulfate (glucosamine) 3-O-sulfotransferase 1) | 6 |
| 2.36 | 0.748 | 2.68 | 2.04 | active | Zmat4 (zinc finger, matrin type 4) | 1 |
| 0.748 | 0.748 | -0.173 | 1.67 | inactive | Zmat4 (zinc finger, matrin type 4) | 2 |
| -4.62 | 0.748 | -4.8 | -4.45 | active | Zmat4 (zinc finger, matrin type 4) | 3 |
| 5.13 | 1.56 | 7.84 | 2.41 | active | Zmat4 (zinc finger, matrin type 4) | 4 |
| 3.37 | 1.56 | 6.02 | 0.719 | active | Zmat4 (zinc finger, matrin type 4) | 5 |
| -0.814 | 1.56 | 0.48 | -2.11 | inactive | Zmat4 (zinc finger, matrin type 4) | 6 |
